Test results from article PMC8964761.
These are yes or no findings as the source states them, for the method shown. In cells and extracts the contact can be indirect. Some results given as binding are weak or reduced against the parent protein; the word gives no strength. One block for each substance: values may come before it.

By UniProt entry, the sequences of proteins in these tests, tags left out. Where a name states a change or a piece, a line headed by the entry shows the natural chain unless it says otherwise. Chains listed by the source or under a name are the forms on record and can include a tag or linker. Residues count along the entry.
Flag-tagged wild-type uPAR (Q03405, residues 23-305): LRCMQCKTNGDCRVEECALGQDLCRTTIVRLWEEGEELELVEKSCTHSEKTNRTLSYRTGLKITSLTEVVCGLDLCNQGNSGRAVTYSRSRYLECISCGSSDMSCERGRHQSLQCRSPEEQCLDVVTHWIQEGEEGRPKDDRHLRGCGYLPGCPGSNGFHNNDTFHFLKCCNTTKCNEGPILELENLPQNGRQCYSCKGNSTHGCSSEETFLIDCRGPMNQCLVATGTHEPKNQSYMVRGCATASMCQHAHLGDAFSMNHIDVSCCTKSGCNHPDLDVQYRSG
uPAR^T51C/V70C fused with mRuby3 (Q03405, form named): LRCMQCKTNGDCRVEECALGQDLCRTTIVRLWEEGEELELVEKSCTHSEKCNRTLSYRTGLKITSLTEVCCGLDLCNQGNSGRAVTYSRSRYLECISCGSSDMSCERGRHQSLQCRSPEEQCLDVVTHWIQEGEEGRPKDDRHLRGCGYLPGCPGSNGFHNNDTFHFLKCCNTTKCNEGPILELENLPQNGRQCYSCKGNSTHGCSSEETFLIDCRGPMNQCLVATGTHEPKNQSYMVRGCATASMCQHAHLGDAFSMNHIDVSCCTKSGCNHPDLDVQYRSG
uPAR^H47C/N259C fused with mRuby3 (Q03405, form named): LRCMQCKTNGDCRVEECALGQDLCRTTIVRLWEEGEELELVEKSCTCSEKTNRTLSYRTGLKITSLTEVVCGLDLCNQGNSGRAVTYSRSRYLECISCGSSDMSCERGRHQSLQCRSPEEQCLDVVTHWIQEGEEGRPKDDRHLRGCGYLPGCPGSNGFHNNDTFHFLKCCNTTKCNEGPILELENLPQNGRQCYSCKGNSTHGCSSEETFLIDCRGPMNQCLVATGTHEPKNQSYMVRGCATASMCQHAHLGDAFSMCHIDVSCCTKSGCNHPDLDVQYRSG
uPAR^E49P fused with mRuby3 (Q03405, form named): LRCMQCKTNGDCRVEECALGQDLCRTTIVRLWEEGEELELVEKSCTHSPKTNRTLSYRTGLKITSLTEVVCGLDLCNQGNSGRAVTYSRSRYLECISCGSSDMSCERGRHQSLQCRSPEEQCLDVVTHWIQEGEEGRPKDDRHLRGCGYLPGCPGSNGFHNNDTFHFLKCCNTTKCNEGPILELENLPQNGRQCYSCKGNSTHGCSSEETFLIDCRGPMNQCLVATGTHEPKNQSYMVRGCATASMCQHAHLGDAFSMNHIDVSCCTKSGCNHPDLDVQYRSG

Tests used:
[1] = molecular target: uPAR^T51C/V70C fused with mRuby3 (human) (UniProt Q03405); assay: cross-linking; 293T cells stably expressing mRuby3-fused uPAR treated with 0.5 mM membrane-impermeable BS3 in PBS, 30 min, 4 °C; lysed; anti-uPAR immunoblot
[2] = molecular target: uPAR^H47C/N259C fused with mRuby3 (human) (UniProt Q03405); assay: as above
[3] = molecular target: Flag-tagged wild-type uPAR (human) (UniProt Q03405); assay: co-IP; mRuby3-fused uPAR mutants co-expressed with Flag-tagged wild-type uPAR in 293T cells; anti-Flag beads; blot with anti-uPAR
[4] = molecular target: uPAR^E49P fused with mRuby3 (human) (UniProt Q03405); assay: cross-linking; 293T cells stably expressing mRuby3-fused uPAR treated with 0.5 mM membrane-impermeable BS3 in PBS, 30 min, 4 °C; lysed; anti-uPAR immunoblot

binding [1]: binds weakly
Substance: uPAR^T51C/V70C fused with mRuby3 (from UniProt Q03405 23-305) (receptor)

binding [2]: no binding
Substance: uPAR^H47C/N259C fused with mRuby3 (from UniProt Q03405 23-305) (receptor)

binding [3]: binds
binding [4]: binds
Substance: uPAR^E49P fused with mRuby3 (from UniProt Q03405 23-305) (receptor)
